According to patent publication US20250073244A1, “CRYSTALLINE FORMS OF PENTAAZA MACROCYCLIC RING COMPLEX” (Galera Labs, LLC, priority 2023, published 2025):

How the values were obtained:
[1] = Crystallization from hot saturated solutions by slow cooling; details: slow cooling 50° C. to 5° C. at 0.1° C./min
Description: (§1) Approximate 100 mg of drug substance was dissolved in the minimal amount of selected solvents at 50° C. Obtained solutions were cooled to 5° C. at 0.1° C./min. Precipitates were collected by filtration. The solid part (wet cake) was investigated by XRPD. When differences were observed, additional investigations were performed (e.g. DSC, TGA. FT-IR, PLM/SEM, etc.).
Scale up: About 200 mg of drug substance will be dissolved in MEK. Obtained solutions will be applied with cooling rate of 0.1° C./min for slow cooling.

[2] = Crystallization at room temperature by slow evaporation; set-up: key to DSC/TGA if XRPD changes: −: No change detected.; +: Change detected.; //: Not carried out
Description: Combined with approximate solubility experiment, solubility samples were filtered by 0.45 μm nylon filter. Obtained solutions were slow evaporated at ambient condition. Solid residues were examined for their polymorphic form (Table 34).
Scale up: About 200 mg of drug substance will be dissolved in EtOAc. Obtained solutions shall be exposed to ambient condition (protected by N2) to allow slow evaporation of solvents (Table 35).

[3] = Precipitation by addition of anti-solvent; set-up: key: −: No change detected.; +: Change detected.; //: Not carried out; details: anti-solvent Heptane
Description: About 50 mg of drug substance was dissolved in a good solvent. Anti-solvent was added into the obtained solutions slowly. Precipitates were collected by filtration. The solid part (wet cake) was investigated by XRPD. When differences were observed, additional investigations were performed (e.g. DSC, TGA. FT-IR, PLM/SEM, etc.).
Scale up: About 200 mg of drug substance was dissolved in EtOAc. Heptane was added to the obtained solutions. The solid part (wet cake) was investigated by XRPD. When differences were observed, additional investigations were performed (e.g. DSC, TGA. FT-IR, PLM/SEM, etc.)

[4] = Equilibration with solvents at 25° C.; set-up: key to DSC/TGA if XRPD changes: −: No change detected.; +: Change detected.; //: Not carried out
Description: About 50 mg of drug substance was equilibrated in suitable amount of solvent at 25° C. for 2 weeks with a stirring plate (Table 30). Obtained suspension was filtered. The solid part (wet cake) was investigated by XRPD. When differences were observed, additional investigations were performed (e.g. DSC, TGA. FT-IR, PLM/SEM, etc.).
[…] The solid part (wet cake) was investigated by XRPD. If differences are observed, additional investigation will be performed (e.g. DSC, TGA, HPLC, etc.)

[5] = Crystallization from hot saturated solutions by fast cooling; set-up: key to DSC/TGA if XRPD changes: −: No change detected.; +: Change detected.; //: Not carried out; details: fast cooling from 50° C. (ice bath)
Description: as §1, with “put into an ice bath.” for “cooled to 5° C. at 0.1° C./min.”, “etc.). When no precipitation was obtained, the solutions were put in −20° C. freezer for crystallization.” for “etc.).”

[6] = Scale up experiment of Pattern A and Pattern D
Description: About 6 g API were used for Pattern A and Pattern D scale up.
Obtained suspension was filtered. The solid part (wet cake) was investigated by XRPD.
About 3 g drug substance were equilibrated in 8 mL of solvent (Water: Acetone, 10:90, v:v) at 25° C. for 1 week with a stirring plate. Obtained suspension was filtered. The solid part (wet cake) was investigated by XRPD.

[7] = Generation of GC4711 Forms (solvent experiments other than diethyl ether trituration, form by XRPD)
[8] = slow evaporation at ambient condition, DCM
[9] = slow evaporation at ambient condition, EtOAc
[10] = slow evaporation at ambient condition, IPAC
[11] = slow evaporation at ambient condition, Toluene
[12] = slow evaporation, protect with N2, Acetone
[13] = slow evaporation, protect with N2, MTBE
[14] = slow evaporation, protect with N2, THF
[15] = 5 days, protected by N2, Heptane

## CCC(=O)[O][Mn][O]C(=O)CC.c1cc2nc(c1)CN[C@H]1CCCC[C@@H]1NCCN[C@H]1CCCC[C@@H]1NC2 [API]
[1]; Acetone
  XRPD: Clear
[1]; EtOAc
  XRPD: Pattern B
[1]; IPA
  XRPD: Clear
[1]; IPAC
  XRPD: Clear
[1]; MEK
  XRPD: Pattern B
[1]; Water
  XRPD: Clear
[2]; [8]
  DSC/TGA if XRPD changes: −
  XRPD: Pattern A
[2]; [9]
  DSC/TGA if XRPD changes: −
  XRPD: Pattern A
[2]; [10]
  DSC/TGA if XRPD changes: −
  XRPD: Pattern A
[2]; [11]
  DSC/TGA if XRPD changes: −
  XRPD: Pattern A
[2]; slow evaporation at ambient condition, Water
  XRPD: Clear
[2]; [12]
  DSC/TGA if XRPD changes: −
  XRPD: Pattern A
[2]; slow evaporation, protect with N2, DCM
  XRPD: Pattern B
[2]; slow evaporation, protect with N2, EtOAc
  XRPD: Pattern B
[2]; slow evaporation, protect with N2, Ethanol
  XRPD: Pattern C^LC
[2]; slow evaporation, protect with N2, IPA
  XRPD: Pattern C^LC
[2]; slow evaporation, protect with N2, IPAC
  XRPD: Pattern B
[2]; slow evaporation, protect with N2, MEK
  XRPD: Pattern B
[2]; [13]
  DSC/TGA if XRPD changes: −
  XRPD: Pattern A
[2]; [14]
  DSC/TGA if XRPD changes: −
  XRPD: Pattern A
[3]; solvent Acetone
  DSC/TGA if XRPD changes: −
[3]; solvent EtOAc
  DSC/TGA if XRPD changes: −
[3]; solvent IPA
  DSC/TGA if XRPD changes: −
[3]; solvent MEK
  DSC/TGA if XRPD changes: −
[3]; solvent THF
  DSC/TGA if XRPD changes: −
[4]; 2 weeks, Heptane
  DSC/TGA if XRPD changes: −
[4]; 2 weeks, Heptane/EtOH, 80/20
  XRPD: Clear
[4]; 2 weeks, Heptane/IPA, 80/20
  XRPD: Clear
[4]; 2 weeks, MTBE/EIOH, 80/20
  XRPD: Clear
[4]; 2 weeks, MTBE/IPA, 80/20
  XRPD: Clear
[4]; 2 weeks, Toluene
  XRPD: Clear
[4]; [15]
  DSC/TGA if XRPD changes: −
  XRPD: Pattern A
[5]; Acetone
  XRPD: Clear
[5]; EtOAc
  DSC/TGA if XRPD changes: −
  XRPD: Pattern A
[5]; IPA
  XRPD: Clear
[5]; IPAC
  DSC/TGA if XRPD changes: −
  XRPD: Pattern A
[5]; MEK
  DSC/TGA if XRPD changes: −
  XRPD: Pattern A
[5]; Water
  XRPD: Clear
[6]; Anti-solvent, EtOAc-Heptane
  XRPD: Pattern A
[6]; Equilibration, Water:Acetone(1:99, v:v), protected by N2, 10 days
  XRPD: Pattern A
[6]; Equilibration, Water:Acetone(10:90, v:v), protected by N2, 10 days
  XRPD: Pattern D
[6]; Slow cooling, MEK
  XRPD: Pattern B
[6]; Slow evaporation, EtOAc
  XRPD: Gel

## CCC(=O)[O][Mn][O]C(=O)CC.c1cc2nc(c1)CN[C@H]1CCCC[C@@H]1NCCN[C@H]1CCCC[C@@H]1NC2 [Sample 8429-39-02]
[7]; acetone, 51 mg/0.2 mL, ambient 5 min., evaporated under N2 while vial warmed
  Result (form): E + A

## CCC(=O)[O][Mn][O]C(=O)CC.c1cc2nc(c1)CN[C@H]1CCCC[C@@H]1NCCN[C@H]1CCCC[C@@H]1NC2 [Sample 8429-79-02]
[7]; EtOAc/wet, 8429-79-01 filtrate, fast evaporation
  Result (form): A + E
